{"source": "patent US8361734B2", "about": "“Xanthurenic acid derivative pharmaceutical compositions and methods related thereto” (Naturon, Inc., priority 2004, dated 2013)", "assay_type_in_all_cases": "in vivo", "key": {"[1]": {"tested_on": "normal Sprague Dawley rat", "assay": "Natriuretic response (Na+ and K+ urine excretion) after oral administration in a normal Sprague Dawley rat", "procedure": "A female Sprague Dawley rat (250 g) was anesthetized lightly with ether and a urethra catheter was inserted using KY jelly and 2% lidocaine as a lubricant. The rat was restrained in a modified Plexiglas tube so that urine could be collected in 1.5-mL microcentrifuge tubes. No saline infusion was administered. Synthetic xanthurenic acid 8-O-β-D-glucoside was injected with a feeding needle at the time indicated in a 1-mL volume of water over the course of 1 minute. […] The tubes were centrifuged at 14,000 rpm to separate any RBC's from the urine. Na^+ and K^+ concentrations in the urine were measured with respective ion selective electrodes. The Na^+ and K^+ excretion rates were calculated by: (vol of urine/time of collection period)×(ion urine concentration).\nA female Sprague Dawley rat (250 g) was anesthetized lightly with ether and a urethra catheter was inserted using KY jelly and 2% lidocaine as a lubricant. The rat was restrained in a modified Plexiglas tube so that urine could be collected in 1.5-mL microcentrifuge tubes. No saline infusion was administered. […] Na^+ and K^+ concentrations in the urine were measured with respective ion selective electrodes. The Na^+ and K^+ excretion rates were calculated by: (vol of urine/time of collection period)×(ion urine concentration)."}, "[2]": {"tested_on": "uremic Sprague Dawley rat", "assay": "Natriuretic response (Na+ and K+ urine excretion) after i.v. administration in a uremic Sprague Dawley rat", "details": "furosemide 20 ug i.v., 2 hours after isolated glucoside 3 μg i.v.", "excerpt": "Female Sprague-Dawley rat, weighing 225 g, was made uremic by tying off one kidney and 30-50% of the second kidney. Two weeks later the rat was ready to test for natriuretic activity. The rat was anesthetized lightly with ether and a tail vein catheter was placed using PE10 tubing. Additionally, a urethra catheter was inserted using KY jelly and 2% lidocaine as a lubricant. The rat was restrained in a modified Plexiglas tube so that urine could be collected in 1.5-mL microcentrifuge tubes. Saline infusion started at time zero at 0.02 mL/min for the length of the assay. The same i.v. catheter was used to inject isolated xanthurenic acid 8-O-β-glucoside at the time indicated in a 1-mL volume in saline over the course of 10 minutes. […] Na^+ and K^+ concentrations in the urine were measured with respective ion selective electrodes. The Na^+ and K^+ excretion rates were calculated by: (vol of urine/time of collection period)×(ion urine concentration).\nA female Sprague-Dawley rat, weighing 225 g, was made uremic by tying off one kidney and 30-50% of the second kidney. Two weeks later the rat was ready to test for natriuretic activity. […] Na^+ and K^+ concentrations in the urine were measured with respective ion selective electrodes. The Na^+ and K^+ excretion rates were calculated by: (vol of urine/time of collection period)×(ion urine concentration)."}, "[3]": {"tested_on": "normal Sprague Dawley rat", "assay": "Natriuretic response (Na+ and K+ urine excretion) after i.v. administration in a normal Sprague Dawley rat", "details": "furosemide only, FIG. 25 (0.5 mg i.v.)", "procedure": "A female Sprague Dawley rat (250 g) was anesthetized lightly with ether and a tail vein catheter was placed using PE10 tubing. Additionally, a urethra catheter was inserted using KY jelly and 2% lidocaine as a lubricant. The rat was restrained in a modified Plexiglas tube so that urine could be collected in 1.5-mL microcentrifuge tubes. Saline infusion started at time zero at 0.02 mL/min for the duration of the assay. The same i.v. catheter was used to inject the test compound. Synthetic xanthurenic acid 8-O-β-D-glucoside, 2 μg, was injected at the time indicated in a 1-mL volume in saline over the course of 10 minutes. The tubes were centrifuged at 14,000 rpm to separate any RBC's from the urine. Na^+ and K^+ concentrations in the urine were measured with respective ion selective electrodes. The Na^+ and K^+ excretion rates were calculated by: (vol of urine/time of collection period)×(ion urine concentration). […] Given an extracellular volume of 50 mL in a 250-g rat, the concentration of the test compound was […], a possible minimum dose.\nA female Sprague Dawley rat (250 g) was anesthetized lightly with ether and a tail vein catheter was placed using PE10 tubing. […] Na^+ and K^+ concentrations in the urine were measured with respective ion selective electrodes. The Na^+ and K^+ excretion rates were calculated by: (vol of urine/time of collection period)×(ion urine concentration)."}}, "data": [{"smiles": "NS(=O)(=O)c1cc(C(=O)O)c(NCc2ccco2)cc1Cl", "note": "[furosemide, reference compound]", "values": [{"measurement": "Na+ excretion", "setting": "[1]; furosemide 100 μg oral, sixty minutes after glucoside 10 μg oral, FIGS. 9-11", "result": "caused sustained Na^+ excretion"}, {"measurement": "Na+ and K+ excretion", "setting": "[1]; oral furosemide alone (data not shown)", "result": "caused both Na^+ and K^+ excretion"}, {"measurement": "diuretic response (time course and Na+ excretion)", "setting": "[2]", "result": "classic"}, {"measurement": "K+ excretion", "setting": "[3]", "result": "causes K^+ excretion"}]}]}
